According to patent publication US9688634B2, “Pest control agent” (priority 2012, dated 2017):
Some entries share one result that the patent states for a list of compounds.

Tests used:
sweet potato whitefly = assay: Test for Examining Effect on Sweet Potato Whitefly (Test Example 2); format: in vivo; details: 200 ppm, sprayed on potted cucumber seedling with first- to second-instar nymphs, 10 days after treatment, 25° C.
brown rice planthopper = details: 200 ppm, immersion treatment of rice seedlings, second- to third-instar nymphs, 5 days after release, 25° C.

| SMILES | preventive value (sweet potato whitefly) | mortality (brown rice planthopper) |
| --- | --- | --- |
| C=CCc1cnccc1C#Cc1ccc(F)cc1 [Compound No. 1] | ≥ 90 | ≥ 90% |
| CC(C)(C)c1ccc(C#Cc2ccncc2Cl)cc1 [Compound No. 9] | ≥ 90 | ≥ 90% |
| CC(C)(C)c1ccc(C#Cc2ccncc2Br)cc1 [Compound No. 10, 3-bromo-4-((4-(tert-butyl)phenyl)ethynyl)pyridine] | ≥ 90 | – |
| C=CCc1cnccc1C#Cc1ccc(C(C)(C)C)cc1 [Compound No. 17, 3-allyl-4-((4-tert-butylphenyl)ethynyl)pyridine] | ≥ 90 | – |
| COc1cnccc1C#Cc1ccc(C(C)(C)C)cc1 [Compound No. 21, 4-((4-(tert-butyl)phenyl)ethynyl)-3-methoxypyridine] | ≥ 90 | – |
| CSc1cnccc1C#Cc1ccc(C(C)(C)C)cc1 [Compound No. 26, 4-((4-(tert-butyl)phenyl)ethynyl)-3-(methylthio)pyridine] | ≥ 90 | – |
| CCCNc1cnccc1C#Cc1ccc(C(C)(C)C)cc1 [Compound No. 32, 4-((4-(tert-butyl)phenyl)ethynyl)-N-propylpyridine-3-amine] | ≥ 90 | – |
| CCNc1cnccc1C#Cc1ccc(C(C)(C)C)cc1 [Compound No. 112, 4-((4-tert-butylphenyl)ethynyl)-N-ethylpyridine-3-amine] | ≥ 90 | – |
| CC(C)(C)c1ccc(C#Cc2ccncc2F)cc1 [compound 8] | – | ≥ 90% |
| CC(C)(C)c1ccc(C#Cc2ccncc2C#N)cc1 [compound 12] | ≥ 90 | – |
| Cc1cnccc1C#Cc1ccc(C(C)(C)C)cc1 [compound 14] | – | ≥ 90% |
| CC(C)(C)c1ccc(C#Cc2ccncc2C(F)(F)F)cc1 [compound 19] | ≥ 90 | ≥ 90% |
| CC(C)(C)c1ccc(C#Cc2ccncc2O)cc1 [compound 20] | ≥ 90 | – |
| CCCSc1cnccc1C#Cc1ccc(C(C)(C)C)cc1 [compound 27] | ≥ 90 | ≥ 90% |
| C=CCSc1cnccc1C#Cc1ccc(C(C)(C)C)cc1 [compound 28] | ≥ 90 | ≥ 90% |
| CNc1cnccc1C#Cc1ccc(C(C)(C)C)cc1 [compound 31] | ≥ 90 | ≥ 90% |
| C=CCNc1cnccc1C#Cc1ccc(C(C)(C)C)cc1 [compound 33] | ≥ 90 | ≥ 90% |
| C=CCN(CC=C)c1cnccc1C#Cc1ccc(C(C)(C)C)cc1 [compound 35] | ≥ 90 | ≥ 90% |
| C#CCN(CC#C)c1cnccc1C#Cc1ccc(C(C)(C)C)cc1 [compound 36] | ≥ 90 | ≥ 90% |
| C=CC[S+]([O-])c1cnccc1C#Cc1ccc(C(C)(C)C)cc1 (stereo not drawn) [compound 39] | ≥ 90 | ≥ 90% |
| CSCc1cnccc1C#Cc1ccc(C(C)(C)C)cc1 [compound 47] | ≥ 90 | – |
| CN(C)Cc1cnccc1C#Cc1ccc(C(C)(C)C)cc1 [compound 49] | ≥ 90 | – |
| CC(C)(C)c1ccc(C#Cc2ccncc2C(=O)O)cc1 [compound 51] | ≥ 90 | – |
| CCOC(=O)c1cnccc1C#Cc1ccc(C(C)(C)C)cc1 [compound 52] | ≥ 90 | – |
| CCC(=O)c1cnccc1C#Cc1ccc(C(C)(C)C)cc1 [compound 53] | ≥ 90 | ≥ 90% |
| CC(=O)Oc1cnccc1C#Cc1ccc(C(C)(C)C)cc1 [compound 56] | ≥ 90 | – |

| SMILES | preventive value (sweet potato whitefly) | mortality (brown rice planthopper) |
| --- | --- | --- |
| CC(=O)Nc1cnccc1C#Cc1ccc(C(C)(C)C)cc1 [compound 58] | ≥ 90 | – |
| CC(C)C(=O)Nc1cnccc1C#Cc1ccc(C(C)(C)C)cc1 [compound 61] | ≥ 90 | – |
| C=CCc1cnccc1C#Cc1ccc(CCCC)cc1 [compound 63] | ≥ 90 | ≥ 90% |
| C=CCc1cnccc1C#Cc1ccc(OC(C)CC)cc1 (stereo not drawn) [compound 70] | ≥ 90 | ≥ 90% |
| C=CCc1cnccc1C#Cc1ccc(OCC(C)C)cc1 [compound 71] | ≥ 90 | ≥ 90% |
| C=CCc1cnccc1C#Cc1ccc(N(C)C)cc1 [compound 88] | ≥ 90 | – |
| C=CCc1cnccc1C#Cc1ccccc1C(F)(F)F [compound 98] | – | ≥ 90% |
| C=CCc1cnccc1C#Cc1ccc(C(C)(C)C)cc1[N+](=O)[O-] [compound 101] | ≥ 90 | ≥ 90% |
| C=CCc1cnccc1C#Cc1ccc(OC(C)C)cc1F [compound 105] | ≥ 90 | ≥ 90% |
| C=CCc1cnccc1C#Cc1ccc(OC(C)C)c(F)c1 [compound 107] | ≥ 90 | ≥ 90% |
| CN(C)c1cnccc1C#Cc1ccc(C(C)(C)C)cc1 [compound 111] | ≥ 90 | ≥ 90% |
| CCCCNc1cnccc1C#Cc1ccc(C(C)(C)C)cc1 [compound 113] | ≥ 90 | ≥ 90% |
| CC(C)Nc1cnccc1C#Cc1ccc(C(C)(C)C)cc1 [compound 116] | ≥ 90 | ≥ 90% |
| CC(C)CNc1cnccc1C#Cc1ccc(C(C)(C)C)cc1 [compound 117] | ≥ 90 | ≥ 90% |
| CC(C)Sc1cnccc1C#Cc1ccc(C(C)(C)C)cc1 [compound 118] | ≥ 90 | ≥ 90% |
| CC(C)CSc1cnccc1C#Cc1ccc(C(C)(C)C)cc1 [compound 119] | ≥ 90 | ≥ 90% |
| CCOc1cnccc1C#Cc1ccc(C(C)(C)C)cc1 [compound 120] | ≥ 90 | ≥ 90% |
| CC(C)Oc1cnccc1C#Cc1ccc(C(C)(C)C)cc1 [compound 121] | ≥ 90 | ≥ 90% |
| CC(C)COc1cnccc1C#Cc1ccc(C(C)(C)C)cc1 [compound 122] | ≥ 90 | ≥ 90% |
| CCCCCOc1cnccc1C#Cc1ccc(C(C)(C)C)cc1 [compound 123] | – | ≥ 90% |
| COc1cnccc1C#Cc1ccc(C=C(C)C)cc1 [compound 124] | ≥ 90 | ≥ 90% |
| COc1cnccc1C#Cc1ccc(C#CC(C)(C)C)cc1 [compound 125] | – | ≥ 90% |
| COc1cnccc1C#Cc1ccc(C)cc1 [compound 126] | ≥ 90 | ≥ 90% |
| COc1cnccc1C#Cc1ccc(C(F)(F)F)cc1 [compound 127] | ≥ 90 | ≥ 90% |
| COc1cnccc1C#Cc1ccc(F)cc1 [compound 128] | ≥ 90 | ≥ 90% |
| COc1cnccc1C#Cc1ccc(OC(C)C)cc1 [compound 129] | ≥ 90 | ≥ 90% |

| SMILES | preventive value (sweet potato whitefly) | mortality (brown rice planthopper) |
| --- | --- | --- |
| CCC(C)Oc1ccc(C#Cc2ccncc2OC)cc1 (stereo not drawn) [compound 130] | ≥ 90 | ≥ 90% |
| COc1cnccc1C#Cc1ccc(OC(C)(C)C)cc1 [compound 131] | ≥ 90 | ≥ 90% |
| COc1cnccc1C#Cc1ccc(OCC(C)(C)C)cc1 [compound 132] | ≥ 90 | ≥ 90% |
| COc1cnccc1C#Cc1ccc(OC(F)(F)F)cc1 [compound 133] | ≥ 90 | ≥ 90% |
| COc1cnccc1C#Cc1ccc(OC2CCCC2)cc1 [compound 134] | – | ≥ 90% |
| COc1cnccc1C#Cc1ccc(SC(C)(C)C)cc1 [compound 135] | ≥ 90 | – |
| COc1cnccc1C#Cc1ccc(SC(F)(F)F)cc1 [compound 136] | ≥ 90 | ≥ 90% |
| COc1cnccc1C#Cc1cccc(C(C)(C)C)c1 [compound 138] | ≥ 90 | ≥ 90% |
| CCOc1cnccc1C#Cc1ccc(OC(C)(C)C)cc1 [compound 139] | ≥ 90 | ≥ 90% |
| C=CCc1cnccc1C#Cc1ccc(OC(CC)CC)cc1 [compound 141] | ≥ 90 | ≥ 90% |
| C=CCc1cnccc1C#Cc1ccc(OC=C)cc1 [compound 142] | – | ≥ 90% |
| C=CCc1cnccc1C#Cc1ccc(C(F)(C(F)(F)F)C(F)(F)F)cc1 [compound 143] | ≥ 90 | ≥ 90% |
| C=CCc1cnccc1C#Cc1cccc(C(C)(C)C)c1 [compound 144] | ≥ 90 | ≥ 90% |
| C=CCc1cnccc1C#Cc1cccc(OC(C)C)c1 [compound 145] | – | ≥ 90% |
| C=CCc1cnccc1C#Cc1cccc(OC(C)CC)c1 (stereo not drawn) [compound 146] | – | ≥ 90% |
| C=CCc1cnccc1C#Cc1cccc(OCC(C)C)c1 [compound 147] | – | ≥ 90% |
| C=CCc1cnccc1C#Cc1cccc(OCCC(C)C)c1 [compound 148] | – | ≥ 90% |
| C=CCc1cnccc1C#Cc1ccc(OC)c(OC)c1 [compound 149] | ≥ 90 | ≥ 90% |
| C=CCc1cnccc1C#Cc1cc(OC)cc(OC)c1 [compound 150] | ≥ 90 | ≥ 90% |
| C=CCc1cnccc1C#Cc1cc(C(C)(C)C)cc(C(C)(C)C)c1 [compound 151] | ≥ 90 | ≥ 90% |
| C=CCc1cnccc1C#Cc1ccc(OC(C)C)c(C)c1 [compound 152] | ≥ 90 | ≥ 90% |
| COc1cnccc1C#Cc1ccc(C#N)cc1 [compound 166] | ≥ 90 | – |
| COc1cnccc1C#Cc1ccc(NC(C)C)cc1 [compound 167] | – | ≥ 90% |
| COc1cnccc1C#Cc1ccc(N(C)C(C)=O)cc1 [compound 171] | – | ≥ 90% |
| CCCOc1cnccc1C#Cc1ccc(C)cc1 [compound 184] | – | ≥ 90% |
| COCc1cnccc1C#Cc1ccc(C)cc1 [compound 198] | – | ≥ 90% |
